Reference: PubChem BioAssay AID493014 (National Center for Advancing Translational Sciences (NCATS), 2011)
The whole screen tested about 340,000 compounds, of which about 170 (0.05%) were called active. Inconclusive means that the source gave no clear call. Such entries were picked first, then a sample of the others. The call rests on the fitted dose curve; in most records, active means well fitted inhibition curve with a large enough effect in the signal ratio, with a control signal flat (not every such curve was filed as active); inconclusive means small, poorly fitted or top-dose-only effect, or effect the other way, or a change in a side signal; inactive means flat fitted curve, though single readings scatter; the % refers to the signal ratio. Potencies beside an inconclusive call are fits to weak or partial responses and may not hold up.

Assay: qHTS Assay to Find Inhibitors of Chronic Active B-Cell Receptor Signaling;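 on activity change, negative = inhibition: plate controls were basal doxycycline-induced cells for no effect and cells given 10 µM MG132 for full effect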
Settings: ABC-DLBCL IkBa-CBG/CBR reporter, luminescence ratio (green luciferase fused to IkBa over red control in TMD8 lymphoma cells), 4 h; activity change, negative = inhibition: at 46.1 µM (top of the series) unless noted
Outline: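 TMD8 ABC-DLBCL cells carrying doxycycline-inducible green luciferase fused to IkappaBalpha plus unfused red luciferase were exposed to compounds (up to 46 uM) for 4 hrs at 37C. Activity came from the overlap-corrected green/red luminescence ratio.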
Potency means the concentration at half of the fitted maximal effect.

Structure (SMILES)	activity change, negative = inhibition	Potency
COCCn1c(SCC(=O)Nc2cc(C)on2)nc2c(c1=O)SCC2	inactive	–
O=C(CN1CC(=O)Oc2ccccc21)NCc1ccco1	–	inconclusive: 17.8 µM [falling, single point]
COc1cccc(N2C(=O)C(O)=C(C(C)=O)C2c2ccc(OC)c(OC)c2)c1 (centres undefined)	inconclusive: 0.754%	–
Fc1cnc(Cl)nc1NC1CCCCC1	inactive	–
CCOC(=O)c1cc2cc(OC)ccc2nc1C	inactive	–
Cc1nn(Cc2ccccc2Cl)c(C)c1C(=O)Nc1nnc(C2CC2)s1	inconclusive: -0.772%	–
CC1CCc2c(C(=O)NCc3ccco3)csc2C1 (centres undefined)	inconclusive: -8.22%	–
Cc1cc(C(F)(F)F)nn1CC(=O)NCc1cccs1	–	inconclusive: 14.1 µM [falling, single point]
CCCCC(CC)CNC(=O)C(=O)c1ccccc1NC(C)=O (centres undefined)	inconclusive: 5.44%	–
Cn1c(Oc2ccccc2)c(C=O)c2ccccc21	inconclusive: -30.6%	–
Cc1ccc(/C=N/NC(=O)CNC(=O)COc2ccccc2)cc1	inactive	–
CCOc1ccc2[nH]c(C(=O)N/N=C/c3ccccc3OC)cc2c1	inconclusive: -17%	–
CCOc1cc(NC(=S)Nc2ccccc2OC)c(OCC)cc1NC(=O)c1ccccc1C	–	inconclusive: 22.4 µM [falling, single point]
Cc1ccc(C)c(N(CC(=O)NCc2ccco2)C(=O)CCC(=O)Nc2nccs2)c1	inactive	–
CCOc1ccc(OCC)c(S(=O)(=O)n2cc(C)nc2CC)c1	inconclusive: 4.33%	–
CC(C)(C)NCC(O)CON=C1c2ccccc2-c2ccccc21 (centres undefined)	inconclusive: -14.1%	–
CC(=O)Nc1sc2c(c1C#N)CCC2	inactive	–
O=C(c1cn(-c2ccccc2)nc1-c1ccc(Br)cc1)N1CCOCC1	inactive	–
CC12OC1C1(O)CCCC1=CC2=O (centres undefined)	inconclusive: -24.6%	–
Cc1ccc(S(C)(=O)=O)cc1C(=O)NC(C)C1CC2CCC1C2 (centres undefined)	inconclusive: 1.24%	–
Cc1ccc(-n2nc3ccc(NC(=S)NC(=O)/C=C/c4ccco4)cc3n2)cc1	inactive	–

Structure (SMILES)	activity change, negative = inhibition	Potency
CCOC(=O)c1c(NC(=S)Nc2cc([N+](=O)[O-])ccc2OC)sc2c1CCCCC2	inactive	–
COc1ccc(Nc2nc(Cl)nc(N3CCN(c4ccc(OC)cc4)CC3)n2)cc1	inconclusive: 17.5%	–
CCOc1ccc(N(CC(=O)Nc2ccc(OC)cc2)C2=NC3CS(=O)(=O)CC3S2)cc1 (centres undefined)	–	inconclusive: 2.51 µM [falling, partial curve]
Cc1nn(C)c(NC(=O)c2ccc(Cl)cc2)c1Cl	inconclusive: 5.86%	–
CN(CC(=O)Nc1ccccc1Cl)CC(=O)Nc1sc2c(c1C(N)=O)CCC2	–	inconclusive: 25.9 µM [falling, partial curve, poor fit]
CC(O)CNc1ncnc2cc(-c3ccc(F)cc3)sc12 (centres undefined)	–	inconclusive: 20 µM [falling, single point]
Cc1cc(C(=O)CSc2nnnn2-c2ccc(O)cc2)c(C)n1Cc1ccc2c(c1)OCO2	inconclusive: -14.9%	–
COc1ccc(/C=C/C(=O)NCC(=O)N/N=C/c2cc(Br)ccc2OC)cc1	inactive	–
Cc1ccccc1-c1ccc(C(=O)Nc2cccc(F)c2)o1	–	inconclusive: 20.6 µM [falling, single point]
Cc1c(C=O)c2ccccc2n1CC(=O)NCc1ccc2c(c1)OCO2	inactive	–
CCc1nc2scc(-c3ccccc3)c2c(=O)n1N	inconclusive: 11.6%	–
O=C(c1ccncc1)c1ccc([N+](=O)[O-])cc1	inconclusive: 3.36%	–
Cc1cccc(N2C(=O)SC(SC(=Nc3ccccc3)Nc3ccccc3)C2=O)c1 (centres undefined)	–	inconclusive: 29.1 µM [falling, single point]
Cc1ccc(C2c3c(oc4ccccc4c3=O)C(=O)N2c2nnc(C)s2)cc1 (centres undefined)	inactive	–
O=C(NCc1ccccc1)C(c1ccccn1)N(C(=O)c1csnn1)c1ccccc1F (centres undefined)	inconclusive: -8.78%	–
NCCCn1cnc2ccccc21	–	inconclusive: 35.5 µM [falling, single point]
CCOP(=O)(OCC)c1nc(-c2ccccc2Cl)oc1N1CCOCC1	inactive	–
O=C(C1COc2ccccc2O1)N1CCN(c2ccccn2)CC1 (centres undefined)	inconclusive: 8.98%	–
COc1ccc(C)cc1Nc1ncnc2c1c(-c1ccccc1)cn2-c1ccc(C)cc1	inconclusive: 1.57%	–
COc1ccc(-c2noc(-c3ccccc3F)n2)cc1	–	inconclusive: 18.4 µM [falling, single point]
O=C(NCCN1CCN(c2ccccc2)CC1)c1cccn2c(=O)c3cc(Cl)ccc3nc12	inconclusive: 5.06%	–

Structure (SMILES)	activity change, negative = inhibition	Potency
Oc1ccccc1-c1cc(-c2ccc(Cl)cc2)n[nH]1	inconclusive: 179%	–
N#C/C(=C\c1cc(Br)ccc1F)C(=O)NC1CC1	inactive	–
COc1ccccc1C(=O)NNC(=O)C(=O)Nc1ccc(C)cc1	–	inconclusive: 35.5 µM [rising, single point]
CCOc1ccc(C(c2c(C)[nH][nH]c2=O)c2c(C)[nH][nH]c2=O)cc1OC	–	inconclusive: 15.8 µM [falling, single point]
CCOCCn1ccc2c(OCC(=O)Nc3cccc(F)c3)cccc2c1=O	–	inconclusive: 35.5 µM [falling, partial curve, poor fit]
Cc1cc(C)nc(SCc2ccc(Br)cc2)n1	inconclusive: 7.83%	–
CCCOc1ccccc1/C=C1\SC(N2CCCCC2)=NC1=O	inconclusive: -0.808%	–
O=C(Nc1ccc(Cl)cc1)[C@@H]1[C@@H]2C(=O)N(c3ccc(Cl)cc3Cl)C(=O)[C@@H]2[C@H]2C=CC=NN21	–	inconclusive: 29.1 µM [falling, single point]
COc1ccc(C(=O)Nn2c(C)nnc2-n2nc(C)cc2C)cc1OC	inactive	–
COCCCn1c(N)c(-c2nc3ccccc3n2C)c2nc3ccccc3nc21	inconclusive: -19.8%	–
Cc1c(-c2cccc(NC(=O)c3ccco3)c2)nc2ncccn12	inconclusive: -26%	–
CCOC(=O)CCN(Cc1sccc1C)S(=O)(=O)c1ccc(F)cc1	inconclusive: 10.8%	–
COc1ccc2c(Cl)c(C(=O)NCCc3ccc(S(N)(=O)=O)cc3)sc2c1	inactive	–
COc1ccc(CCn2c(-c3ccco3)nc3nc4ccccc4nc32)cc1OC	inconclusive: 2.98%	–
COc1ccc(C(=O)NCc2ccc3c(c2)CCN3C(=O)c2ccc(F)cc2)cc1	–	inconclusive: 10 µM [rising, partial curve, poor fit]
NC(N)=N/N=C/c1c(Cl)cccc1Cl	–	inconclusive: 39.8 µM [falling, single point]
COc1cccc(CN2CC(C(=O)NCc3cccc(N4CCCC4)c3)CCC2=O)c1 (centres undefined)	inactive	–
Cc1onc(-c2ccccc2Cl)c1C(=O)Nc1sc2c(c1C(N)=O)CCC(C)C2 (centres undefined)	inactive	–
COc1ccccc1CN1CCNC(=O)C1CC(=O)NCc1c(C)n[nH]c1C (centres undefined)	–	inconclusive: 0.562 µM [falling, partial curve, poor fit]
COc1ccc(CC(=O)OCC(=O)NC2CCCCC2)cc1OC	inactive	–
c1ccc(CCc2nn3c(-c4ccncc4)nnc3s2)cc1	inconclusive: 9.49%	–

Gathered by group: the entries above containing a nitro group on carbon.
Structure (SMILES)	activity change, negative = inhibition	Potency
CCOC(=O)c1c(NC(=S)Nc2cc([N+](=O)[O-])ccc2OC)sc2c1CCCCC2	inactive	–
O=C(c1ccncc1)c1ccc([N+](=O)[O-])cc1	inconclusive: 3.36%	–

The list continues:

Structure (SMILES)	activity change, negative = inhibition	Potency
CN(CC(=O)Nc1ccc(N2CCOCC2)cc1)C(=O)c1cn(-c2ccccc2)nc1-c1ccccc1	inactive	–
CC(NC(=O)Nc1ccc([N+](=O)[O-])cc1)C(c1ccccc1)N1CCOCC1 (centres undefined)	inconclusive: 4.04%	–
Cc1ccn(CC(=O)N2CCCC(N3CCN(c4ccc(F)cc4)CC3)C2)n1 (centres undefined)	inconclusive: 16%	–
Cc1c(-n2c(SCC(C)C)nc3ccccc3c2=O)c(=O)n(-c2ccccc2)n1C	inconclusive: 1.68%	–
Cc1cc(SCC(=O)c2ccccc2)nc(SCC(=O)c2ccccc2)n1	inconclusive: 11.4%	–
CC(C)n1c(N)c(C#N)c2ccc([N+](=O)[O-])cc2c1=O	inconclusive: 4.64%	–
O=C(NC1CCCC1)c1ccc2nc[nH]c2c1	inconclusive: -1.61%	–
COc1ccc(CN(C)CC(O)COc2ccc(-c3ccccc3)cc2)cc1OC (centres undefined)	inconclusive: 2.18%	–
O=C(N/N=C/c1c(Nc2cccc(C(F)(F)F)c2)nc2ccccn2c1=O)c1ccccc1	inconclusive: 19.8%	–
COc1ccc(Cl)cc1NC(=O)N1CCN(C2CCCCC2)CC1	inconclusive: -0.242%	–
COc1ccc(CN2C(=O)/C(=C/c3ccncc3)SC2=S)cc1	–	inconclusive: 29.1 µM [cytotoxic, single point]
O=C(N/N=C/c1cccc(Cl)c1)C(c1ccncc1)N1CCOCC1 (centres undefined)	inactive	–
Cc1c(Cl)c([N+](=O)[O-])nn1Cc1ccc(C(=O)NN)o1	–	inconclusive: 7.08 µM [falling, partial curve]
O=C(Nc1ccc(N2CCCC2)cc1)c1ccc2ccccc2c1	–	inconclusive: 6.51 µM [falling, full curve]
C[C@H](NC(=O)c1ncn(C)c1C(=O)N[C@@H](C)c1ccccc1)c1ccccc1	inconclusive: 0.772%	–
CC(=O)Nc1ccc(NC(=O)COC(=O)c2ccc([N+](=O)[O-])o2)cc1	inactive	–
CCN1CCN(CNC(=O)c2cnccn2)CC1	inconclusive: 0.787%	–
O=C(NNS(=O)(=O)c1ccc(Cl)cc1)c1cccc(S(=O)(=O)N2CCOCC2)c1	inactive	–
CCOc1ccc(-n2c(O)c(/C=N/NC(=O)C3COc4ccccc4O3)c3ccccc3c2=O)cc1 (centres undefined)	inactive	–
CCOC(=O)CCc1c(C)nc2cc(-c3ccc(Cl)cc3)[nH]n2c1=O	–	inconclusive: 3.66 µM [falling, full curve]
O=C(Nc1ccc2c(c1)OCO2)c1ccc(Br)c(S(=O)(=O)N2CCCC2)c1	inconclusive: -23.2%	–

Entries of single compounds from above:
COc1ccc(Cl)cc1NC(=O)N1CCN(C2CCCCC2)CC1 as listed: activity change, negative = inhibition: inconclusive: -0.242%
Cc1cc(SCC(=O)c2ccccc2)nc(SCC(=O)c2ccccc2)n1 as listed: activity change, negative = inhibition: inconclusive: 11.4%
CC(NC(=O)Nc1ccc([N+](=O)[O-])cc1)C(c1ccccc1)N1CCOCC1 (centres undefined) as listed: activity change, negative = inhibition: inconclusive: 4.04%
